In publication PMC4763238, “Resveratrol induces autophagy by directly inhibiting mTOR through ATP competition” (Scientific Reports, 2016):

Experiments:
mTOR [1] = biological target: mTOR (Homo sapiens, UniProt P42345)
mTOR [2] = biological target: mTOR (Homo sapiens, UniProt P42345, D2195A)

Which results are given for `CC(C)n1nc(-c2cc3cc(O)ccc3[nH]2)c2c(N)ncnc21` [PP242]?
in vitro kinase assay, positive control for mTOR inhibition (mTOR [1]): PP242, a kinase inhibitor of mTOR, was used as a positive control for mTOR inhibition.; in vitro kinase assay with D2195A mTOR (mTOR [2]): PP242 also inhibited DA mTOR, albeit the inhibitory potency was less than WT mTOR (Fig. 5E)
